Laboratory results from PMC4999505.
These are yes or no findings as the source states them, for the method shown. Binding seen in cells or lysates may run through a third protein. Some results given as binding are weak or reduced against the parent protein; the word gives no strength.

Amino acid sequences for entries named in this document (tags omitted). Residues count along the entry.
UniProt Q96CV9: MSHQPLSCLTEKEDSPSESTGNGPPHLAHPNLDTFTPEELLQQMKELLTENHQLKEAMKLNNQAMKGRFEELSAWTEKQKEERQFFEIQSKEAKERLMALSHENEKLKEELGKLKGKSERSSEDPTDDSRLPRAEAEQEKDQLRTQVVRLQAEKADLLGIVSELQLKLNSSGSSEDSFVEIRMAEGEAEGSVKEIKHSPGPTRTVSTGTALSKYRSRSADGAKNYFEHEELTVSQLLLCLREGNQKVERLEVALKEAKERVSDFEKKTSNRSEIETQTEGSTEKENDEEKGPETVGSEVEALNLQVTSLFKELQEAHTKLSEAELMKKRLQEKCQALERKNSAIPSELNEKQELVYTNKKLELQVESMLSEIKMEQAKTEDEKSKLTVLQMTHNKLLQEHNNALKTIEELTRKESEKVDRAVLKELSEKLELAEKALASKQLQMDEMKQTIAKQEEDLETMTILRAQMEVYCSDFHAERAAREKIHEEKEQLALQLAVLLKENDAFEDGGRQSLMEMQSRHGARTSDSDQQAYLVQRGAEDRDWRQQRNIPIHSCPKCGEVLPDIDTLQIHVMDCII
UniProt P19438, residues 30-455: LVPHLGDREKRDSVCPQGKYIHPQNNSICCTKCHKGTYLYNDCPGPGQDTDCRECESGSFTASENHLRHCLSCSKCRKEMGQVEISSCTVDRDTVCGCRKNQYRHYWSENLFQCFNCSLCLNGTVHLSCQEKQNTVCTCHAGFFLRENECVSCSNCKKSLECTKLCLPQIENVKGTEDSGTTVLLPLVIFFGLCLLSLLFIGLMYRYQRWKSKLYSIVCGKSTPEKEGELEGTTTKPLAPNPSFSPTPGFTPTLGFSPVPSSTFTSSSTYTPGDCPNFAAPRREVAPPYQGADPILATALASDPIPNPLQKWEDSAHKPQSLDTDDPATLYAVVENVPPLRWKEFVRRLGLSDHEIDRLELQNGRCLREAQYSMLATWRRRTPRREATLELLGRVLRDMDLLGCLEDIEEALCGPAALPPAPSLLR
UniProt Q14790: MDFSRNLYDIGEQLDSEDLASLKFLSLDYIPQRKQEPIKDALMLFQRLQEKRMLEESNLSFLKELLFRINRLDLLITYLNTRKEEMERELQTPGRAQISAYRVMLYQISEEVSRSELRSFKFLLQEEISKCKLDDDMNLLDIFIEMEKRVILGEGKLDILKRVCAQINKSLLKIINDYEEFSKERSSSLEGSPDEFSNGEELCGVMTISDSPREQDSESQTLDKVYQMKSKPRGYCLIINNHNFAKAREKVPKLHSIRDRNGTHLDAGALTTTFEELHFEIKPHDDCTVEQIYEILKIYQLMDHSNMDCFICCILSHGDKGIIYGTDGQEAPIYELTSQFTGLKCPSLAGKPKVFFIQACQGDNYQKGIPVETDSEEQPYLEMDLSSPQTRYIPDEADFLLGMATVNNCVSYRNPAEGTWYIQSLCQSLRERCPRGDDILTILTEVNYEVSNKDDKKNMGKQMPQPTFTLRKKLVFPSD
UniProt Q13546: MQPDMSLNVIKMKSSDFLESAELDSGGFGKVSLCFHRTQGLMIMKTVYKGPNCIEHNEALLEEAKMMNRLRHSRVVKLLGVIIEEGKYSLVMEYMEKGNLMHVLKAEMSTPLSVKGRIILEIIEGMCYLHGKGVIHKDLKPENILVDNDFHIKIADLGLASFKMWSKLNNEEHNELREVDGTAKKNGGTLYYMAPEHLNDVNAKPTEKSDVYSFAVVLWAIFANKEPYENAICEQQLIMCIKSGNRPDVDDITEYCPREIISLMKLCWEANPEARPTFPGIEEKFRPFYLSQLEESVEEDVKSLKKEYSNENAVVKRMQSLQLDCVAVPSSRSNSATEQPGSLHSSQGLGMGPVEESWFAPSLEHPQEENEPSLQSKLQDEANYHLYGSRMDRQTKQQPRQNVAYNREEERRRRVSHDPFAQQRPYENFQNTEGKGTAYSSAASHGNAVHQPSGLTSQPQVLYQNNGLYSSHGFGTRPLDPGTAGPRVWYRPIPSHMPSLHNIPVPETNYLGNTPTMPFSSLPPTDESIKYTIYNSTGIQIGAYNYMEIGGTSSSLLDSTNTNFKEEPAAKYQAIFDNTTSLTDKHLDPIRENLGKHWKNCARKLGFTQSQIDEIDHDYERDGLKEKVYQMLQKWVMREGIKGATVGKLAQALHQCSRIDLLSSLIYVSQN
UniProt Q96EP0: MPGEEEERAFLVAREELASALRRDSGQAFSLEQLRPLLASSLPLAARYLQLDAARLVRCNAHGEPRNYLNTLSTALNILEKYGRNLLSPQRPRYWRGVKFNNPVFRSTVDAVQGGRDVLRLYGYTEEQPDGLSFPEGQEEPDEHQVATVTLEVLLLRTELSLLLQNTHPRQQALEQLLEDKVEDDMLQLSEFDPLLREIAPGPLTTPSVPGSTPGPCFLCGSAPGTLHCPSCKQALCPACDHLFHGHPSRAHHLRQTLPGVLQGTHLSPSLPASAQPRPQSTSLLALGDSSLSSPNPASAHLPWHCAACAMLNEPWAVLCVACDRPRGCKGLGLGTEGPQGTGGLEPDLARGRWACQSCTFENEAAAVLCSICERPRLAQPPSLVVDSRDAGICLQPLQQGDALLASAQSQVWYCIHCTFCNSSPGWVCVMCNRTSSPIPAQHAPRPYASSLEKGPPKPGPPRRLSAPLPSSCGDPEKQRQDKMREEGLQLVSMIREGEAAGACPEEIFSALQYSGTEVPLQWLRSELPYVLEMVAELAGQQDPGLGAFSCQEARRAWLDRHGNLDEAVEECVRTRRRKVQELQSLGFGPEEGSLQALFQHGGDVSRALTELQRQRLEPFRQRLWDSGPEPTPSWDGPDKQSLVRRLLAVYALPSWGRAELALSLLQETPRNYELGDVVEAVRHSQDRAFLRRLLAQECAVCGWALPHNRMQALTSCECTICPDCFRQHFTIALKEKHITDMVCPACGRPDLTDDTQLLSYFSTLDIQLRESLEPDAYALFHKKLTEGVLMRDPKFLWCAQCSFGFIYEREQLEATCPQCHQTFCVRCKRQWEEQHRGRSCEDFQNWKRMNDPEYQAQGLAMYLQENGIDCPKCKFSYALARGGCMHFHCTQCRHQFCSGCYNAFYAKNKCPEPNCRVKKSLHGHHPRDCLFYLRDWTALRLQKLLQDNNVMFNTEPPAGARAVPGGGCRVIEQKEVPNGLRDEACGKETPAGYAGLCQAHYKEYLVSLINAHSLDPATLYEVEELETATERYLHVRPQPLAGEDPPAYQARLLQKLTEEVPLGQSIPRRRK
UniProt Q9Y6K9: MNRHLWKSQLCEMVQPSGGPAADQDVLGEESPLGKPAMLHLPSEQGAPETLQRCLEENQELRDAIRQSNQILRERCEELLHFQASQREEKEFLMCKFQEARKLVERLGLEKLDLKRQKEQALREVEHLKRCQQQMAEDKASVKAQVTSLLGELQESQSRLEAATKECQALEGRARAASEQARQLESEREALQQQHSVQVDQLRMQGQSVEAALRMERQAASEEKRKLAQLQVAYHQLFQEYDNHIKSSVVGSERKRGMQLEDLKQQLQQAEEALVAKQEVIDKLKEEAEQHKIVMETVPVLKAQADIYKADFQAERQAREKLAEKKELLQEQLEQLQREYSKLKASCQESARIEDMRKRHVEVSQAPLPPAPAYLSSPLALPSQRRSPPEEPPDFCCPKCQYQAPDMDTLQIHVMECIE

How the values were obtained:
[1] = biological target: Optineurin wild type, overexpressed in cells (human) (UniProt Q96CV9); assay: co-IP; association on TNF-α stimulation at overexpressed levels (Fig. 4c)
[2] = biological target: TNF receptor (TNFR) (human (endogenous in HeLa)) (UniProt P19438); assay: co-IP; parental and OPTN-KO HeLa cells stimulated with 1 μg/ml FLAG-TNF-α for the indicated times, lysed in 1% Triton X-100 buffer; TNFR complex I precipitated with anti-FLAG M2 beads, immunoblotting; also with overexpression of OPTN (Supplementary Fig. 10)
[3] = biological target: endogenous optineurin (human (endogenous in HEK293T and HeLa)) (UniProt Q96CV9); assay: co-IP; association on TNF-α stimulation at endogenous levels (Fig. 4d)
[4] = biological target: endogenous caspase 8 (pro-caspase 8) (human (endogenous in HeLa)) (UniProt Q14790); assay: co-IP; parental and OPTN-KO HeLa cells treated with TNF-α and CHX for the indicated times; anti-caspase 8 immunoprecipitates immunoblotted

Substance	binding [2]	further results
RIP1, overexpressed (from UniProt Q13546 1-671) (enzyme)		binding [1]: binds
endogenous HOIL-1L (LUBAC component) (from UniProt Q9BYM8-1 1-510) (enzyme)	binds	
endogenous HOIP (LUBAC component) (from UniProt Q96EP0 1-1072) (enzyme)	binds	
endogenous NEMO (from UniProt Q9Y6K9 1-419)	binds	
endogenous RIP1 (from UniProt Q13546 1-671) (enzyme)		binding [3]: binds
endogenous optineurin (from UniProt Q96CV9 1-577)		binding [4]: binds
